Test results as given in patent US8686113B2 (priority 2009, dated 2014).

Tests used:
Type in all cases: cell-based
HeLa cells = test: Fluorescence microscopy of labeled peptides; details: 40 μmol/L, 2 h
M. luteus 10240 = test: Confocal laser scanning microscopy, bacteria; details: 30 μmol/L, TAMRA quench, incubation for 1 h
SH-SY5Y cells = test: Fluorescence microscopy of labeled peptides; details: 40 μmol/L, 2 h
E. coli BL21 A1 = test: Confocal laser scanning microscopy, bacteria; details: 30 μmol/L, TAMRA quench, time not stated

Substance | internalization (fluorescence) in HeLa cells (HeLa cells) | internalization (fluorescence) in M. luteus (M. luteus 10240) | internalization (fluorescence) in SH-SY5Y cells (SH-SY5Y cells) | internalization in E. coli (E. coli BL21 A1)
CF-RQIKIWFQNRRMKWKKC-(CH2CO-VDKGSYLPRPTPPRPIYNRN-NH2)-OH [SEQ ID NO. 100] | internalize | accumulates in M. luteus |  | 
H-CFVDKGSYLPRPTPPRPIYNRN-NH2 [SEQ ID NO. 92, reference compound] | no internalization |  | no internalization | internalize in E. coli
